Laboratory results as given in PubChem BioAssay.
The list shows a part of the results.

Assay: EMT-state selective cytotoxicity in co-culture – imaging, PC-3E GFP, TEM4-18 mCherry, primary screen (AID 1345086);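 also: cells exposed to compound for 72 h before imaging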
Settings: PC-3E GFP / TEM4-18 mCherry co-culture, imaging cell counts; measured here: epithelial PC-3E GFP cell survival; at 1 µM

Row | Structure (SMILES) | normalised cell number
1 | CN(C)CCS | 0.94
2 | NC(=O)Nc1ccc([As](=O)(O)O)cc1 | 1.08
3 | O=P(O)(O)F | 1.07
4 | O=C(O[C@H]1CN2CCC1CC2)C1NCc2ccccc2[C@@H]1c1ccccc1 (stereo not given in full) | 1.07
5 | OCCSCCO | 0.99

Same assay, conditions: PC-3E GFP / TEM4-18 mCherry co-culture, imaging cell counts; measured here: mesenchymal TEM4-18 mCherry cell survival; at 1 µM

Row | Structure (SMILES) | normalised cell number
6 | CN(C)CCS | 0.99
7 | NC(=O)Nc1ccc([As](=O)(O)O)cc1 | 1.14
8 | O=P(O)(O)F | 1.01
9 | O=C(O[C@H]1CN2CCC1CC2)C1NCc2ccccc2[C@@H]1c1ccccc1 (stereo not given in full) | 1.17
10 | OCCSCCO | 1
